These are yes or no findings as the source states them, for the method shown. Binding seen in cells or lysates may run through a third protein. Binding can be weak; no strength is given.
Molecular target: Tcf3 in Jurkat cells (human (endogenous in Jurkat)) (UniProt P15923)
Assay: co-IP; Pierce co-IP kit; lysates of Jurkat cells, GFP-Id2^WT and GFP-Id2^ΔHLH Jurkat cells, with or without anti-CD3 antibody; IP lysis buffer (0.025 M Tris, 0.15 M NaCl, 0.001 M EDTA, 1% NP-40, 5% glycerol); antibody-conjugated resin (anti-GFP, anti-Flag or anti-Tcf3) overnight at 4 °C; immunoblot

The chains behind the UniProt entries cited, without tags or fusion partners. Where a name states a change or a piece, a line headed by the entry shows the natural chain unless it says otherwise.
UniProt P15923: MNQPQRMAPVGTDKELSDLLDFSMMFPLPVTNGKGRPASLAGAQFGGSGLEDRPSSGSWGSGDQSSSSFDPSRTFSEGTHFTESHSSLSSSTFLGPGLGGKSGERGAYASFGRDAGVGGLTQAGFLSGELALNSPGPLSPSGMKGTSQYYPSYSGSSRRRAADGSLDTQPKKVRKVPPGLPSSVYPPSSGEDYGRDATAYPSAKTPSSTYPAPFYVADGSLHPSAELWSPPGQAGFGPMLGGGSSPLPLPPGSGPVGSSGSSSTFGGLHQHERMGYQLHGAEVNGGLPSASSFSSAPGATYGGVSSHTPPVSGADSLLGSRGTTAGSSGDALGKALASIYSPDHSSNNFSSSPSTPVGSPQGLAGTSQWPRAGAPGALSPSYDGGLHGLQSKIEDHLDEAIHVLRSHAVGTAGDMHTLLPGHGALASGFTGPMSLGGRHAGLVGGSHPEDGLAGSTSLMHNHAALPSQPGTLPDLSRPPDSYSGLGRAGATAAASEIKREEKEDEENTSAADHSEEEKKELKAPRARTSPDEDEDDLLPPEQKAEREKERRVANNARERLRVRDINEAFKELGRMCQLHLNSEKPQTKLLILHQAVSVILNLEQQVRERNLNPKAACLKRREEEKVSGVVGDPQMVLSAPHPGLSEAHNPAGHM
UniProt Q02363: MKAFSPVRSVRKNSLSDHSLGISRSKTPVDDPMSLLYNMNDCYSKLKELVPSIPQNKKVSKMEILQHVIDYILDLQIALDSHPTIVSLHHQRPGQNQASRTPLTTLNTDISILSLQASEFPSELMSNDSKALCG

- binding: binds
Substance: GFP-Id2^ΔHLH (HLH-deleted Id2) (from UniProt Q02363)

Source: paper PMC10902300
